The source of these data is the supplement of paper PMC4683952.

Molecules are shown by their SMILES. The list shows a part of the results. No stated cut-off is given here; in the data, active = 2 or more and inactive = the rest. Most values lie within the scatter of the assay; repeated measurements hardly agree.

This experiment relates to Lgr5 (MarsCy1-Lgr5-EGFP, U2OS). The experiment is described as follows: cell-surface Lgr5 expression (SCi1 fluorescence, background-subtracted) relative to WT DMSO (fold of DMSO control); higher = more Lgr5 at the plasma membrane. The note with it: U2OS MarsCy1-Lgr5-EGFP stable; treatment time: overnight; library: ActiProbe-5K (TimTec); 25 µM.
In the case of `Clc1cc2nonc2c2nonc12`, the “cell-surface Lgr5 expression” value is inactive: 1.3.

`CCCC[n+]1cc([NH-])on1.Cl`: the “cell-surface Lgr5 expression” value is inactive: 1.04. With `O=[N+]([O-])c1ccc(N2CCCC2)c2ncccc12`, the “cell-surface Lgr5 expression” value was inactive: 1.36.

Take `Fc1ccc2c(C3CCNCC3)noc2c1`: the “cell-surface Lgr5 expression” value is inactive: 0.916. The same measure for `Nc1n[nH]c(Cc2nc(N)n[nH]2)n1`: inactive: 1.53; for `C/C(=C/c1ccc2c(c1)OCO2)[N+](=O)[O-]`: inactive: 0.222; for `O=[N+]([O-])c1ccc(N2CCNCC2)c2ncccc12`: inactive: 1.33. The same measure for `CC12CC(=O)C3C(CCC4=CC(=O)CCC43C)C1CCC2=O` (stereo not given): inactive: 1.22; for `Cl.Nc1cc2nc3ccccc3nc2cc1N`: inactive: 1.47.

As for `NNC(=O)c1nonc1N`, the “cell-surface Lgr5 expression” value is inactive: 1.15. To `c1(c(cc(cc1OC)/C=C(\C#N)C#N)OC)OC` belongs inactive: 1.05; to `N#C[C@@H]1CCC[C@H]2OC[C@@H](c3ccccc3)N12`, inactive: 0.85; to `CN1CCC2(CC1)C(C#N)=C([S-])NC(=O)C2C#N` (stereo not given), inactive: 1.14.

For the compound `CS(=O)(=O)NCCNC(=O)c1nonc1N`, the “cell-surface Lgr5 expression” value is inactive: 1. To `NCCC(=O)OCC1CCCN2CCCCC12` (stereo not given) belongs inactive: 0.901.

`Nc1nc2nonc2n2nnnc12`: the “cell-surface Lgr5 expression” value is inactive: 1.39. `Oc1ccc(Br)cc1Cl`: the “cell-surface Lgr5 expression” value was inactive: 1.13. Take `O=c1[nH]c2nonc2[nH]c1=O`: the “cell-surface Lgr5 expression” value was inactive: 1.14. The same measure for `Cc1oc2ccccc2c1-c1ccc2ccccc2n1.[O-][Cl+3]([O-])([O-])O`: inactive: 1.13. To `Cc1cc(C=O)c(C)n1C1CCCCC1` belongs inactive: 1.24; to `S=C(SSC(=S)N1CCCCC1)N1CCCCC1`, inactive: 1.06. The same measure for `O=C(/N=c1\[cH-][n+](C23CC4CC(CC(C4)C2)C3)no1)Nc1ccccc1`: inactive: 1.22. On to `Clc1ccc(Cl)c2c1N[C@@H](c1cccnc1)[C@@H]1CC=C[C@@H]21`, for which the “cell-surface Lgr5 expression” value is inactive: 1.2. For `Nc1nc(N)nc(N)n1`, the “cell-surface Lgr5 expression” value was inactive: 1.02. The same measure for `FC(F)(F)c1ccccc1C1NCc2ccccc2-n2cccc21` (stereo not given): inactive: 1.17; for `COCCCNC1CCN(C)CC1`: inactive: 1.15; for `Nc1nonc1NC(=O)COC1CN2CCC1CC2` (stereo not given): inactive: 1.02. On to `[Na][O]CC1CCCN2CCCCC12` (stereo not given), for which the “cell-surface Lgr5 expression” value was inactive: 1.15. To `NCCSc1c[nH]c2ccccc12` belongs inactive: 1.17. With `c1(sc(C)cc1)/C=C(/C#N)C#N`, the “cell-surface Lgr5 expression” value is inactive: 1.06.

In the case of `CN1CCC2(CC1)C(C#N)=C(N)NC(S)=C2C#N`, the “cell-surface Lgr5 expression” value is inactive: 0.995.

Turning to `Cc1n[nH]c([N+](=O)[O-])c1[N+](=O)[O-]`, the “cell-surface Lgr5 expression” value is inactive: 1.41. The same measure for `C1CCC2NC3CCCCC3NC2C1` (stereo not given): inactive: 0.954. The same measure for `CN1CCc2c(c(N3CCCCC3)nc3[nH]nc(N)c23)C1`: inactive: 1.11; for `N=C([NH3+])NC(=N)Nn1cnnc1.[Cl-]`: inactive: 1.29.

`COc1ccc(/C(C)=N/NC(=O)CSC2c3ccccc3-c3ccccc32)cc1OC`: the “cell-surface Lgr5 expression” value is inactive: 1.96.

For the compound `Fc1cc(C2NCc3ccccc3-n3cccc32)cc(F)c1F` (stereo not given), the “cell-surface Lgr5 expression” value is inactive: 1.16. The same measure for `Br.NCCc1cc(O)c(O)cc1O`: inactive: 0.964; for `O=[N+]([O-])c1ccc(Cl)c2nonc12`: inactive: 1.53. `Nc1nn2c(O)c(N)c(=O)[nH]c2c1[N+](=O)[O-]`: the “cell-surface Lgr5 expression” value is inactive: 1.26. As for `CN(C)c1ccc(N(C)C)cc1.O`, the “cell-surface Lgr5 expression” value is inactive: 1.4. As for `O=c1[nH]c2cc(Cl)ccc2n1C1CCNCC1`, the “cell-surface Lgr5 expression” value is inactive: 1.02. To `NC(=O)c1n[nH]cc1[N+](=O)[O-]` belongs inactive: 1.2; to `CN1CCC(N)C2CCCCC21` (stereo not given), inactive: 1.19. For `O.O.O=C(O)C1N=C2CC=CCC2N1` (stereo not given), the “cell-surface Lgr5 expression” value was inactive: 1.18. The same measure for `C1CCC(NC2CCCCC2)CC1.Cl`: inactive: 1.29.

As for `COc1cc2c(cc1OC)-c1c(OC)c(OC)c(N)c3c1[C@H](C2)N(C)CC3`, the “cell-surface Lgr5 expression” value was inactive: 1.04. To `O=[N+]([O-])c1ccc(N2CCNCC2)cc1NC1CC1` belongs inactive: 1.19; to `Fc1ccccc1C1NCCC2N=CNC21` (stereo not given), inactive: 1.31. As for `Cc1cc(C=O)c(C)n1C(C)C`, the “cell-surface Lgr5 expression” value is inactive: 1.24. With `c1ccc(N2CCNCC2)nc1`, the “cell-surface Lgr5 expression” value is inactive: 1.29. Regarding `COC(=O)Nc1no[n+]([O-])c1NC(=O)OC`, the “cell-surface Lgr5 expression” value was inactive: 1.46. On to `Nc1ccc(OC(F)(F)Cl)cc1`, for which the “cell-surface Lgr5 expression” value was inactive: 1.07. For the compound `Nc1nnc(CCN2CCCCC2)s1`, the “cell-surface Lgr5 expression” value is inactive: 1.2. Consider `c1ccc2c(c1)CNC(c1ccc3c(c1)OCO3)c1cccn1-2` (stereo not given), for which the “cell-surface Lgr5 expression” value was inactive: 1.12. To `Cl.c1ccc(Oc2ccc3[nH]cc(CCN4CC4)c3c2)cc1` belongs inactive: 1.2. Take `C1(/C(NC(=S)NC1=O)=O)=C/c1c(n(CCOC)c(c1)C)C`: the “cell-surface Lgr5 expression” value is inactive: 0.759.

For the compound `OCCCCNC1CCCCC1`, the “cell-surface Lgr5 expression” value is inactive: 1.13. The same measure for `CC1(C)CN=C(Nc2ccc(OC(F)(F)F)cc2)S1`: inactive: 1.09. The same measure for `CN1C(=O)N(C)C2C1N(C)C(=O)N2C` (stereo not given): inactive: 1.16; for `Nc1n[nH]c(SCC(=O)Nc2nonc2N)n1`: inactive: 1.11; for `O=[N+]([O-])/C=C/c1ccccc1C(F)(F)F`: inactive: 1.13.

Turning to `Nc1ncnc(N)n1`, the “cell-surface Lgr5 expression” value was inactive: 0.98.

In the case of `Nc1nonc1-c1nnn[nH]1`, the “cell-surface Lgr5 expression” value is inactive: 1.04. To `CN1CCc2[nH]c(=S)c(C#N)cc2C1` belongs inactive: 1.26; to `CC(=O)C12N[C@@H]1CC1C3CC=C4C[C@@H](O)CCC4(C)C3CCC12C` (stereo not given in full), inactive: 1.35; to `CNC(=O)N(C)c1nnc(C(C)(C)C)s1`, inactive: 1.12. As to `O=[N+]([O-])c1cnn(CCc2nn[nH]n2)c1`, the “cell-surface Lgr5 expression” value was inactive: 0.999. Consider `Cl.[NH-]c1c[n+](C2CCCCC2)no1`, for which the “cell-surface Lgr5 expression” value is inactive: 1.23. As for `c1(cn(C)c2c1cccc2)/C=C(/C#N)C#N`, the “cell-surface Lgr5 expression” value is inactive: 1.37. The same measure for `CC1(C)C(C(=O)Nc2nccs2)C1(C)C`: inactive: 0.97. To `Fc1ccccc1C1NCc2ccccc2-n2cccc21` (stereo not given) belongs inactive: 1.24. The same measure for `N#C/C(=C\c1ccc[se]1)C(N)=S`: inactive: 1.31.

For the compound `O=C(NC(=S)N1C[C@H]2C[C@@H](C1)c1cccc(=O)n1C2)c1cccs1`, the “cell-surface Lgr5 expression” value is inactive: 0.675.

Take `Cc1cc(N=C=S)nn1C`: the “cell-surface Lgr5 expression” value was inactive: 1.21.
